Among all 300,000 compounds or so, about 5,400 (1.8%) were called active. Inconclusive means that the source gave no clear call. Such entries were picked first, then a sample of the others. The call rests on the fitted dose curve; tested in HEK293 cells. Where the call is inconclusive, the potency comes from a doubtful curve fit.
Assay: qHTS for inhibitors of binding or entry into cells for Marburg Virus
Details: Marburg virus pseudotyped entry inhibition, cell reporter; activity change, negative = inhibition: at 37.8 µM (top of the series) unless noted
On the % scale 0 is the no-effect control and ±100 the full control effect; potency means the concentration at half of the fitted maximal effect.

Q: With Cc1cccc(OCC(=O)Nc2ccccc2C(=O)N2CCOCC2)c1 as the compound, how does the Potency read?
A: inconclusive: 0.282 µM [activator, full curve, poor fit]

Q: With COCCCN1C(=O)/C(=C/c2ccc(CNS(=O)(=O)c3ccccc3)o2)C(C(=O)OC)=C1C as the compound, how does the Potency read?
A: inconclusive: 35.5 µM [inhibitor, single point]

Q: With O=C(CCN1C(=O)C2C3C=CC(C3)C2C1=O)NCCc1ccccc1 (stereo not drawn) as the compound, how does the Potency read?
A: inconclusive: 5.62 µM [activator, partial curve, poor fit]

Q: With CCOc1ccccc1N(C)C(=O)C1CCN(S(=O)(=O)c2cccc3nonc23)CC1 as the compound, how does the Potency read?
A: inconclusive: 6.31 µM [activator, partial curve, poor fit]

Q: For C=CCn1c(C)cc(C(=O)COc2ncnc3sccc23)c1C, which Potency is on record?
A: inconclusive: 10.3 µM [inhibitor, partial curve, poor fit]

Q: For O=C(NCc1ccccc1)c1ccc(OCC2CCCO2)cc1 (stereo not drawn), which “activity change, negative = inhibition” value is on record?
A: inactive: -0.0082%

Q: For Cc1ccc2c(c1)[nH]c1c(=O)n(CCCN3CCOCC3)cnc12, which Potency is on record?
A: inconclusive: 0.447 µM [activator, partial curve, poor fit]

Q: Which Potency does the source give for O=C(Nc1ccc(S(=O)(=O)N2CCN(Cc3ccccc3)CC2)cc1)c1cnccn1 here?
A: inconclusive: 14.6 µM [inhibitor, single point]

Q: With Cc1nc2c(-c3ccccc3)c(C)nn2c(C)c1CCC(=O)N1CCN(c2ccc(F)cc2)CC1 as the compound, how does the “activity change, negative = inhibition” value read?
A: inactive: -21.6% [at 46.1 µM]

Q: Which Potency does the source give for C/C(=N\Nc1cc(-c2ccccc2)nc(-c2ccccc2)n1)c1ccc(O)c(C)c1 here?
A: inconclusive: 29.1 µM [inhibitor, single point]

Q: For COc1cccc(CNC(=O)CCc2c(C)nc3c(c(C)nn3-c3ccc(C)c(C)c3)c2C)c1, which Potency is on record?
A: inconclusive: 35.5 µM [inhibitor, single point]

Q: For COc1ccc(C(O)C(CC(=O)NCCCOC(C)C)C(=O)NCCCOC(C)C)cc1OC (stereo not drawn), which Potency is on record?
A: inconclusive: 0.794 µM [activator, full curve]

Q: For CCn1c(=O)c(C(=O)NNC(=O)c2ccccc2F)c(O)c2ccccc21, which Potency is on record?
A: inconclusive: 35.5 µM [inhibitor, single point]

Q: Which Potency does the source give for O=C(Nc1ccc(OCc2ccccc2)cc1)c1ccccc1 here?
A: inconclusive: 6.31 µM [activator, partial curve, poor fit]

Q: For CCOC(=O)c1c(NC(=S)Nc2ccc(OCC)cc2)sc2c1CCN(C)C2, which Potency is on record?
A: inconclusive: 12.6 µM [inhibitor, single point]

Q: With O=C(O)c1cnn(-c2ccccc2)c1-c1ccccc1 as the compound, how does the “activity change, negative = inhibition” value read?
A: inactive: 23.4%

Q: For COc1ccc(Cl)cc1N(C)C(=O)c1ccc2c(=O)n3c(nc2c1)CCCCC3, which “activity change, negative = inhibition” value is on record?
A: inactive: 3.24% [at 46.1 µM]

Q: For CC1CCN(c2nc3ccccc3nc2N2CCC(C)CC2)CC1, which “activity change, negative = inhibition” value is on record?
A: inactive: -0.0725%

Q: With O=C(NCc1ccco1)c1ccc(Cn2c(=O)c3ccccc3n(Cc3cccc(Cl)c3)c2=O)cc1 as the compound, how does the Potency read?
A: inconclusive: 4.61 µM [inhibitor, full curve, poor fit]

Q: Which “activity change, negative = inhibition” value does the source give for COc1ccc(NC(=O)c2cc3c(Cl)nc4ccccc4c3s2)c(OC)c1 here?
A: inactive: 3.7%

Q: With COc1ccccc1CN1CCNC(=O)C1CC(=O)NCC1CCOCC1 (stereo not drawn) as the compound, how does the “activity change, negative = inhibition” value read?
A: inactive: -2.91%

Q: Which Potency does the source give for CN1CCN(S(=O)(=O)c2ccc(N3CCN(c4ccc(O)cc4)CC3)c([N+](=O)[O-])c2)CC1 here?
A: inconclusive: 3.55 µM [activator, single point]

Q: With Cc1nnc(SCC(=O)c2cc(C)n(-c3ccc4c(c3)OCO4)c2C)s1 as the compound, how does the Potency read?
A: inconclusive: 32.6 µM [inhibitor, partial curve, poor fit]

Q: For O=C(Nc1cc(S(=O)(=O)Nc2ccccc2Cl)ccc1O)c1ccc(F)cc1F, which Potency is on record?
A: inconclusive: 11.2 µM [inhibitor, single point]

Q: For CN(C)S(=O)(=O)c1ccc(/C(O)=C2/C(=O)C(=O)N(CCCN3CCOCC3)C2c2ccncc2)cc1 (stereo not drawn), which “activity change, negative = inhibition” value is on record?
A: inactive: 2.66% [at 46.1 µM]

Q: With Cc1ccccc1NC(=S)NNc1ncc(C(F)(F)F)cc1Cl as the compound, how does the Potency read?
A: inconclusive: 1 µM [inhibitor, full curve, poor fit]

Q: Which Potency does the source give for Cc1cc(C)c2nc(-c3cccc(Cl)c3)c(C)c(C(=O)N3CCOCC3)c2c1 here?
A: inconclusive: 1.78 µM [inhibitor, partial curve, poor fit]

Q: Which Potency does the source give for O=C1CSC(=S)N1/N=C/c1cccc(C(F)(F)F)c1 here?
A: inconclusive: 3.55 µM [activator, single point]

Q: Which Potency does the source give for Cc1cc(OCCn2cc(C(=O)c3cccs3)c3ccccc32)ccc1Cl here?
A: inconclusive: 35.5 µM [inhibitor, single point]

Q: For Cc1ccc2oc(C(=O)N(Cc3ccncc3)CC3CCCO3)c(C)c2c1 (stereo not drawn), which “activity change, negative = inhibition” value is on record?
A: inactive: -18.5%

Q: With CCOC(=O)c1c(C)n(-c2ccccc2)c2ccc(O)c(CN(C)C)c12 as the compound, how does the Potency read?
A: inconclusive: 5.62 µM [inhibitor, partial curve]

Q: Which Potency does the source give for CC(C)Oc1ccc(C(=O)NCc2ccco2)cc1 here?
A: inconclusive: 22.4 µM [activator, partial curve, poor fit]

Q: For Cc1nn(C)c(Cl)c1CN1CCC(CO)(CC2CCCCO2)CC1 (stereo not drawn), which Potency is on record?
A: inconclusive: 35.5 µM [activator, single point]

Q: With Cc1ccc(S(=O)(=O)Nc2ccc3ccccc3c2[N+](=O)[O-])cc1 as the compound, how does the “activity change, negative = inhibition” value read?
A: inactive: 1.79% [at 46.1 µM]

Q: Which Potency does the source give for Cc1ccc(NC(=O)c2ccccc2Cl)cc1-n1cnnn1 here?
A: inconclusive: 5.01 µM [activator, single point]

Q: For CC(C)c1onc(C(=O)NCc2ccccn2)c1[N+](=O)[O-], which “activity change, negative = inhibition” value is on record?
A: inactive: -11.7% [at 46.1 µM]

Q: With O=C(Nc1ccc2c(c1)OCO2)c1cc(-c2ccc(O)cc2)on1 as the compound, how does the Potency read?
A: active: 7.94 µM

Q: Which Potency does the source give for c1cc(C2OCCN2CC2COC3(CCCC3)O2)ccn1 (stereo not drawn) here?
A: inconclusive: 1.12 µM [activator, single point]

Q: For O=C(N/N=C/c1ccc([N+](=O)[O-])cc1)c1cccc2cc[nH]c12, which “activity change, negative = inhibition” value is on record?
A: inactive: 12.9%

Q: With CN(Cc1ccc(Cl)cc1Cl)C(=O)c1cc(=O)c2ccccc2o1 as the compound, how does the “activity change, negative = inhibition” value read?
A: inactive: 1.3% [at 46.1 µM]

Q: With CCCN(CCC)C(=O)Cn1c(=O)n(-c2cccc(OC)c2)c(=O)c2c3c(sc21)CCCC3 as the compound, how does the Potency read?
A: inconclusive: 11.2 µM [inhibitor, partial curve, poor fit]

Q: Which “activity change, negative = inhibition” value does the source give for CC(C)N(Cc1nnc(-c2ccccc2Cl)o1)C(=O)c1cccc(C#N)c1 here?
A: inactive: 0.603%

Q: With COc1ccccc1/C=N/NC(=O)CNC(=O)c1ccc(S(=O)(=O)N2CCCC2)cc1 as the compound, how does the “activity change, negative = inhibition” value read?
A: inactive: 13.9% [at 46.1 µM]
